# Data as given in publication PMC9629626.
# The chains behind the UniProt entries cited, without tags or fusion partners. Where a name states a change or a piece, a line headed by the entry shows the natural chain unless it says otherwise.
# UniProt Q8W117: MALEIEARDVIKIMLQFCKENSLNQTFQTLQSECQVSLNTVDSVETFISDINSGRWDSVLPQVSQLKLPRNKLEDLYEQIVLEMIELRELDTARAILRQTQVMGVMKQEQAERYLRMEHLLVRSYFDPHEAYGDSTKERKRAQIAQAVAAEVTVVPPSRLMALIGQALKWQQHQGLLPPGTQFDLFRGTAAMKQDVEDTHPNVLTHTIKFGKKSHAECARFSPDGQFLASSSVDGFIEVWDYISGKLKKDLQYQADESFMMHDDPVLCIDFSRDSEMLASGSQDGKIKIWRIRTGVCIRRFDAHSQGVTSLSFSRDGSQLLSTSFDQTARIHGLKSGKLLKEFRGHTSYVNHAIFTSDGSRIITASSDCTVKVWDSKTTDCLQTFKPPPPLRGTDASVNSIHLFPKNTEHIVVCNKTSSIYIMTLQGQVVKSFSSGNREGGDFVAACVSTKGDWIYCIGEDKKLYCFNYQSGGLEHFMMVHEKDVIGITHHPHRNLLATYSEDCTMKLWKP
# UniProt A4GSN8: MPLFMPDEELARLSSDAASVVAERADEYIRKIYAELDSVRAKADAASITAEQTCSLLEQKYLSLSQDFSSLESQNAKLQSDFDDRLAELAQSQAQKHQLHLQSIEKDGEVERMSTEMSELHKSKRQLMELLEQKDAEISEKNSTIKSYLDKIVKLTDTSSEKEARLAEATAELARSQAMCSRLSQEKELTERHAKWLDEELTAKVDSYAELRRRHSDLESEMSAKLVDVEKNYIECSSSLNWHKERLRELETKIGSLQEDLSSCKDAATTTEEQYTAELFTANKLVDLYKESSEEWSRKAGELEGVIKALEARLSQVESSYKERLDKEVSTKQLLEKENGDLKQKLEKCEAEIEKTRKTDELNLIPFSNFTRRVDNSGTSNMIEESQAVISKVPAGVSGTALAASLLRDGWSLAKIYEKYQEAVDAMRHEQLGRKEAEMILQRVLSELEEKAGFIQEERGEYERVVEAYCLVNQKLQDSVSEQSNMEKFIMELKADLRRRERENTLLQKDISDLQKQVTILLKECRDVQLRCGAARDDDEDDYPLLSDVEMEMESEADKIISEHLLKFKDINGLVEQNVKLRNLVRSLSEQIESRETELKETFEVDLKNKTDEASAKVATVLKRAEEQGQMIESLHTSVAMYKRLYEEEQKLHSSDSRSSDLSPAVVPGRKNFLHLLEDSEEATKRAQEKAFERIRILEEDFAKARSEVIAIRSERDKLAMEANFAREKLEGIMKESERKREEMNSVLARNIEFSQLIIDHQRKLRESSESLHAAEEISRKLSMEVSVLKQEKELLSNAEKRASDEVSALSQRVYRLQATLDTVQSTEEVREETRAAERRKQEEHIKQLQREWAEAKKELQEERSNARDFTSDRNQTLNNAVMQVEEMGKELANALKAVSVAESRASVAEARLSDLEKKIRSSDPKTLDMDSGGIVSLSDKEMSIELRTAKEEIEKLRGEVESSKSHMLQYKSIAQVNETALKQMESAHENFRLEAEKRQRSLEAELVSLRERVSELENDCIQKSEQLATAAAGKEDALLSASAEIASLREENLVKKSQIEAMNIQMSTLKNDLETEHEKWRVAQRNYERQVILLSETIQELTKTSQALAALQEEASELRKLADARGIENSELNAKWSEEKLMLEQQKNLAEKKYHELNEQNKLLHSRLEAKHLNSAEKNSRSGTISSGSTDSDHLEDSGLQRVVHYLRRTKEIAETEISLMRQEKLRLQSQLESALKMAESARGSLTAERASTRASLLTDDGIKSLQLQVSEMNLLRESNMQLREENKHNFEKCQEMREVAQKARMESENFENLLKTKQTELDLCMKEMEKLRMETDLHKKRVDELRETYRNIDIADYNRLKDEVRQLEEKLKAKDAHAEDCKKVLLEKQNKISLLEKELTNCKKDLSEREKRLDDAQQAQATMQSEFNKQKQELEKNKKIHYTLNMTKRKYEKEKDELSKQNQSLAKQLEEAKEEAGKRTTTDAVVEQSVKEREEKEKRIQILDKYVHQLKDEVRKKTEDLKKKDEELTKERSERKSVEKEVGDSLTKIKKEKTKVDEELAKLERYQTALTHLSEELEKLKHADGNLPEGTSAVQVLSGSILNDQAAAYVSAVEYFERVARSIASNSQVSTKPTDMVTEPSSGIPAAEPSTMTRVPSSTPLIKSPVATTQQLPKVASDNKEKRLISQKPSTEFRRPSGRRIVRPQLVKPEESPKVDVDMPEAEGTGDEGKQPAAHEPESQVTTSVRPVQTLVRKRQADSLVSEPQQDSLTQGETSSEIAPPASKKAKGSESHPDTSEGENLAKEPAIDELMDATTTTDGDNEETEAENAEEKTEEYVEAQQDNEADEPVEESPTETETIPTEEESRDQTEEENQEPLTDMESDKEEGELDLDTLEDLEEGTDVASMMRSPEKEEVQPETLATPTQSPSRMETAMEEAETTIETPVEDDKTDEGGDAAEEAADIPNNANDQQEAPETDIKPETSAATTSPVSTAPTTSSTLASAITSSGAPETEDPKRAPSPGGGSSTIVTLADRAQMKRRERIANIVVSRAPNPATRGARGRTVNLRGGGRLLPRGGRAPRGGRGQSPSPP
# UniProt Q9M9N3: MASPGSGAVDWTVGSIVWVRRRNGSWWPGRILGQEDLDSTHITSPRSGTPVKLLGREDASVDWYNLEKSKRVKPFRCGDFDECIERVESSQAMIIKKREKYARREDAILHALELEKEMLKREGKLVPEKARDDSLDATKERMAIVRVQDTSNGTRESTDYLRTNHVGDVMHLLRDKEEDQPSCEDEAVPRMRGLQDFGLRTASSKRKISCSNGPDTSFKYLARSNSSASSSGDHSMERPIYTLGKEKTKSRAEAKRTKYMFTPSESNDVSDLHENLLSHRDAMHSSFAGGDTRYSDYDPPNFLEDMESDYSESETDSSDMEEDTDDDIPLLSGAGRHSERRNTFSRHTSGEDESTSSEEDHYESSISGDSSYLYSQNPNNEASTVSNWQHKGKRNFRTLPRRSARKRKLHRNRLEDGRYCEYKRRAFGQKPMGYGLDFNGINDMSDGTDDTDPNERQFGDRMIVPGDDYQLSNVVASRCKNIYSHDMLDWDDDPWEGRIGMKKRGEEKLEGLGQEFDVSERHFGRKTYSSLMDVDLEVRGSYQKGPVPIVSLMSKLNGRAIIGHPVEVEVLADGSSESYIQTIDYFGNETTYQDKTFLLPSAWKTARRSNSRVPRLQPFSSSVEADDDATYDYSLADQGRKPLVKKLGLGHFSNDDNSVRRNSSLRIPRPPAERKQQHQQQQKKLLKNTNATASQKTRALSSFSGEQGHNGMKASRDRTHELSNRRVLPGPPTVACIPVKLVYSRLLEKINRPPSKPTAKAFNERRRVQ
# T1: GBPL3-TurboID-3HA (Arabidopsis) (UniProt F4KG14)
# T1 sequence: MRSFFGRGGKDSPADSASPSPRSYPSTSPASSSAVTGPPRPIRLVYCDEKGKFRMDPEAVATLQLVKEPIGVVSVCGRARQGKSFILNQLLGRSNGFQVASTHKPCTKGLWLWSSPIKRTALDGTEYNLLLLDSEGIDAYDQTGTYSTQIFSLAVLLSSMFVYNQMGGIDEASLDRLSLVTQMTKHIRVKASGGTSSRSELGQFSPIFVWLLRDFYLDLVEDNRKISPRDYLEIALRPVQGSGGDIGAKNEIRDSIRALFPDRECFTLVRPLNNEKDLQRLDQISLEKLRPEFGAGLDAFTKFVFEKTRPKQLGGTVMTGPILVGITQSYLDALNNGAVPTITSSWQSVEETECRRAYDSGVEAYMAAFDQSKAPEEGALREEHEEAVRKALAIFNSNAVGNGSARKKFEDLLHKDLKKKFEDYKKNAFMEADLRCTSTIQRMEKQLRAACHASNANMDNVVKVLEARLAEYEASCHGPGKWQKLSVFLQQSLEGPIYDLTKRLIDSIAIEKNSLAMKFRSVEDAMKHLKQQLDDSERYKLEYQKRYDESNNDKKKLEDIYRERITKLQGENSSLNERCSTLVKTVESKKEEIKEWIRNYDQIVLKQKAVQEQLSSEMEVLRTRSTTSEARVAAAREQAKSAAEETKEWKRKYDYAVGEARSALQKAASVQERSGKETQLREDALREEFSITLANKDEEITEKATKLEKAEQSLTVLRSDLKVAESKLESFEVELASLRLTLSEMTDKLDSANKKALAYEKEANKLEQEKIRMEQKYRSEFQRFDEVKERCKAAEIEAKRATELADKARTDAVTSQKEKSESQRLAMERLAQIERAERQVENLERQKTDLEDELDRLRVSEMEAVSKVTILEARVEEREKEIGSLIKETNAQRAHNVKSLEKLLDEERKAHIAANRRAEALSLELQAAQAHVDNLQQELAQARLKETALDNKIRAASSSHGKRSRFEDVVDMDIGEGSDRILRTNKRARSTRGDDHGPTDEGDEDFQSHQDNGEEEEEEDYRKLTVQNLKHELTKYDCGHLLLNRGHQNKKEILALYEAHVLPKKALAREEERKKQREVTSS
# Target: T1, GBPL3-TurboID-3HA (Arabidopsis)
# Experiment: proximity labelling; GBPL3-TurboID-3HA (native promoter) as bait in 1-week-old Arabidopsis seedlings, 50 uM biotin 4 h at room temperature; biotinylated proteins on streptavidin beads; label-free quantitative mass spectrometry; cutoffs fold-change > 4, p < 0.01 against wild-type non-transformants; 2 biological replicates
row,Molecule,binding
1,ABA-RESPONSIVE KINASE SUBSTRATE 2 (AKS2),binds
2,SUPPRESSORS OF MEC-8 AND UNC-52 1 (SMU1) (from UniProt Q8W117 1-511),binds
3,Nup82,binds
4,NUA (from UniProt A4GSN8 1-2093),binds
5,PWWP DOMAIN INTERACTOR OF POLYCOMBS1 (PWO1) (from UniProt Q9M9N3),binds
6,Nup50c,binds
7,"Nup50b (protein, UniProt Q9LW88 1-465) MGDSDNAIPFSRKRTALKELSRDNPGLDDDDEDTSALESGTFNTASKEVLASRRIIRVRRTDRSATAPPASNPFTGIRLVPFTAPAPSTAAAETTKPLSAGKQETLADGRSDATKETDGDSKEKSDAIDAVGKQETQGDEISAKTKDIIDGGEKEMSEAVNSVEGGGAVNKNEDEIKTTMVTEVAAGEETVKDDNNNSNTVEGSDCVVKDTGGNQTEKEGKEGDGNEDTEKNGDSGALSSFHQHSSSKNAFTGLASTGFSASSFSFGLVPQEGSTGSGSEQSSFSFGQANNGNSSLFGASVATSITTKSTETTTAFPSKQDVSVETGEENEKAAFTADSVMFEYLEGGWKERGKGELKVNISTTENRKARLVMRSKGNYRLTLNASLYPEMKLAKMDKKGITFACVNSVSDAKDGLSTLALKFKDPTVVEEFRAVIEEHKDSKPSVAEAAAPLKTPENSPSAEDA",binds
8,"ACTIN-RELATED PROTEIN 4 (ARP4) (protein, UniProt Q84M92 1-441) MYGGDEVSAIVVDLGSHTCKAGYAGEDAPKAVFPSVIGAVDGVEAMDVDVDSTKTNSNSEDSKTESEKEKSKRKLYVGSQAMSYRRDHMEVLSPIKDGIVSDWDLVDNIWEHAFKSCLMIDPTEHPMLLAEPPLNTQQQREKAAELMFEKYKVPALFMAKNPVLTSFATGRATSLVVDCGGGSTTISPVHDGYVLQKAVVSSPLGGEFLTDCLLKSLESKGIKIRPRYSFKRKEVRAGEFQVEDVDIPDTTESYKLFCQRMIVGDIKDSICRVPDTPYDDKSYSNIPTTSYELPDGQTLEIGADRFKVPDVMFNPSIVQTIPGMEKYAEMIPSVRGLPHMVMESINKCDVDIRRELYSSILLAGGTSSMQQLKERLEKDLIEESPHSARVKVLASGNTTERRFSVWIGGSILASLGSFQQMWFSKSEYEEHGASYIQRKCP",binds
9,"ANTHESIS PROMOTING FACTOR 1 (APRF1) (protein, UniProt Q9LYK6 1-330) MSLTELDDGLVRRMAMGAVFSDFGGKIHSVGFHRTDDLLVTSSEDDSLRLFDIANAKQLKITYHKKHGTDRVCFTHHPSSLICSSRYNLESTGESLRYLSMYDNRILRYFKGHKDRVVSLCMSPINDSFMSGSLDRSVRLWDLRVNACQGILHLRGRPAVAYDQQGLVFAIAMEGGAVKLFDSRCYDKGPFDTFLVGGDTAEVNDIKFSNDGKSMLLTTTNNNIYVLDAYRGEKKCGFSLEPSQGTPIEATFTPDGKYVLSGSGDGTLHAWNIENPSEVARWENNIGVVSCLKWAPRRAMFVAASTVLTFWIPNDGESPAPADPPTDQQQ",binds
10,"TBP-ASSOCIATED FACTOR 5 (TAF5) (protein, UniProt Q6S7B0 1-669) MDPEQINEFVVGYLKKKGFSSAAKDLESYHHQNNNGSSFTSVDYHNDPELTKLIRSFSQQEDDPTRYREGYSKLRSWAYNSLDLYKHELLRVMYPVFIHCYMDLVGKGHTQEARAFFNSFRKDHEMVHLRDLQKLEGVLSPSHLEEMEFARSLRKSKVNIKFCQYSYELLLQYLHSTVSTLMLGIINEHINFQVYSGQPTSSSDDIEAVTIVGSFQDTANHINQKEIQWGLLEDSLEDRLEKTGGLLSDSEKGQGESKDGDADDSKKRSTEIGKQGSSLKKLKKDKAGNATAKVARLETITVSPAPRVKPELALPVMSTDVEQSILEDLRNRVQLSSVAMPSVSFYTFVNTHNGLNCSSISHDGSLVAGGFSDSSIKVWDMAKIGQAGSGALQAENDSSDQSIGPNGRRSYTLLLGHSGPVYSATFSPPGDFVLSSSADTTIRLWSTKLNANLVCYKGHNYPVWDAQFSPFGHYFASCSHDRTARIWSMDRIQPLRIMAGHLSDVDCVQWHPNCNYIATGSSDKTVRLWDVQTGECVRIFIGHRSMVLSLAMSPDGRYMASGDEDGTIMMWDLSTARCITPLMGHNSCVWSLSYSGEGSLLASGSADCTVKLWDVTSSTKLTKAEEKNGNSNRLRSLRTFPTKSTPVHALRFSRRNLLFAAGAISKPAN",binds
11,"ARABIDOPSIS RESPONSE REGULATOR 1 (ARR1) (protein, UniProt Q940D0 1-690) MMNPSHGRGLGSAGGSSSGRNQGGGGETVVEMFPSGLRVLVVDDDPTCLMILERMLRTCLYEVTKCNRAEMALSLLRKNKHGFDIVISDVHMPDMDGFKLLEHVGLEMDLPVIMMSADDSKSVVLKGVTHGAVDYLIKPVRMEALKNIWQHVVRKRRSEWSVPEHSGSIEETGERQQQQHRGGGGGAAVSGGEDAVDDNSSSVNEGNNWRSSSRKRKDEEGEEQGDDKDEDASNLKKPRVVWSVELHQQFVAAVNQLGVEKAVPKKILELMNVPGLTRENVASHLQKYRIYLRRLGGVSQHQGNLNNSFMTGQDASFGPLSTLNGFDLQALAVTGQLPAQSLAQLQAAGLGRPAMVSKSGLPVSSIVDERSIFSFDNTKTRFGEGLGHHGQQPQQQPQMNLLHGVPTGLQQQLPMGNRMSIQQQIAAVRAGNSVQNNGMLMPLAGQQSLPRGPPPMLTSSQSSIRQPMLSNRISERSGFSGRNNIPESSRVLPTSYTNLTTQHSSSSMPYNNFQPELPVNSFPLASAPGISVPVRKATSYQEEVNSSEAGFTTPSYDMFTTRQNDWDLRNIGIAFDSHQDSESAAFSASEAYSSSSMSRHNTTVAATEHGRNHQQPPSGMVQHHQVYADGNGGSVRVKSERVATDTATMAFHEQYSNQEDLMSALLKQEGIAPVDGEFDFDAYSIDNIPV",binds
12,"C-TERMINAL DOMAIN PHOSPHATASE-LIKE 1 (CPL1) (protein, UniProt Q5YDB6 1-967) MYSNNRVEVFHGDGRLGELEIYPSRELNQQQDDVMKQRKKKQREVMELAKMGIRISHFSQSGERCPPLAILTTISSCGLCFKLEASPSPAQESLSLFYSSCLRDNKTAVMLLGGEELHLVAMYSENIKNDRPCFWAFSVAPGIYDSCLVMLNLRCLGIVFDLDETLVVANTMRSFEDKIDGFQRRINNEMDPQRLAVIVAEMKRYQDDKNLLKQYIESDQVVENGEVIKVQSEIVPALSDNHQPLVRPLIRLQEKNIILTRINPMIRDTSVLVRMRPSWEELRSYLTAKGRKRFEVYVCTMAERDYALEMWRLLDPEGNLINTNDLLARIVCVKSGFKKSLFNVFLDGTCHPKMALVIDDRLKVWDEKDQPRVHVVPAFAPYYSPQAEAAATPVLCVARNVACGVRGGFFRDFDDSLLPRIAEISYENDAEDIPSPPDVSHYLVSEDDTSGLNGNKDPLSFDGMADTEVERRLKEAISASSAVLPAANIDPRIAAPVQFPMASASSVSVPVPVQVVQQAIQPSAMAFPSIPFQQPQQPTSIAKHLVPSEPSLQSSPAREEGEVPESELDPDTRRRLLILQHGQDTRDPAPSEPSFPQRPPVQAPPSHVQSRNGWFPVEEEMDPAQIRRAVSKEYPLDSEMIHMEKHRPRHPSFFSKIDNSTQSDRMLHENRRPPKESLRRDEQLRSNNNLPDSHPFYGEDASWNQSSSRNSDLDFLPERSVSATETSADVLHGIAIKCGAKVEYKPSLVSSTDLRFSVEAWLSNQKIGEGIGKSRREALHKAAEASIQNLADGYMRANGDPGPSHRDATPFTNENISMGNANALNNQPFARDETALPVSSRPTDPRLEGSMRHTGSITALRELCASEGLEMAFQSQRQLPSDMVHRDELHAQVEIDGRVVGEGVGSTWDEARMQAAERALSSVRSMLGQPLHKRQGSPRSFGGMSNKRLKPDFQRSLQRMPSSGRYS",binds
13,"CRWN2 (protein, UniProt Q9SAF6 1-1128) MTPRSETHKIGGVTNPRNADRKGKAVAFSDDLVIPTLPPPPIGTLTGQGVSRGHTDDMDMGDWRRFREVGLLNEASMEKKDQEALLEKISTLEKELYGYQHNMGLLLMENKELVSKHEQLNQAFQEAQEILKREQSSHLYALTTVEQREENLRKALGLEKQCVQELEKALREIQEENSKIRLSSEAKLVEANALVASVNGRSSDVENKIYSAESKLAEATRKSSELKLRLKEVETRESVLQQERLSFTKERESYEGTFQKQREYLNEWEKKLQGKEESITEQKRNLNQREEKVNEIEKKLKLKEKELEEWNRKVDLSMSKSKETEEDITKRLEELTTKEKEAHTLQITLLAKENELRAFEEKLIAREGTEIQKLIDDQKEVLGSKMLEFELECEEIRKSLDKELQRKIEELERQKVEIDHSEEKLEKRNQAMNKKFDRVNEKEMDLEAKLKTIKEREKIIQAEEKRLSLEKQQLLSDKESLEDLQQEIEKIRAEMTKKEEMIEEECKSLEIKKEEREEYLRLQSELKSQIEKSRVHEEFLSKEVENLKQEKERFEKEWEILDEKQAVYNKERIRISEEKEKFERFQLLEGERLKKEESALRVQIMQELDDIRLQRESFEANMEHERSALQEKVKLEQSKVIDDLEMMRRNLEIELQERKEQDEKDLLDRMAQFEDKRMAELSDINHQKQALNREMEEMMSKRSALQKESEEIAKHKDKLKEQQVEMHNDISELSTLSINLKKRREVFGRERSRFLAFVQKLKDCGSCGQLVNDFVLSDLQLPSNDEVAILPPIGVLNDLPGSSNASDSCNIKKSLDGDASGSGGSRRPSMSILQKCTSIIFSPSKRVEHGIDTGKPEQRLSSSVAVGMETKGEKPLPVDLRLRPSSSSIPEEDEEYTDSRVQETSEGSQLSEFQSSRRGRGRPRKAKPALNPTSSVKHASLEESSKDELSGHVSVTSKKTTGGGGRKRQHIDDTATGGKRRRQQTVAVLPQTPGQRHYNLRRKKTVDQVPADVEDNAAAGEDDADIAASAPSKDTVEETVVETLRARRIETNADVVSAENNGDVPVANVEPTVNEDTNEDGDEEEDEAQDDDNEENQDDDDDDDGDDDGSPRPGEGSIRKKLWTFLTT",binds

# No constants are given. Whether binding was seen depends on the method and setting. In cells and extracts the contact can be indirect. These calls come from enrichment with a bait or labelling near it, and not all partners need be listed.
